# Reference: doi:10.1101/2020.04.01.020479
# Amino acid sequences for entries named in this document (tags omitted). A change or cut given only in a name is not applied to a line headed by its entry. Residues count along the entry.
# UniProt Q14318: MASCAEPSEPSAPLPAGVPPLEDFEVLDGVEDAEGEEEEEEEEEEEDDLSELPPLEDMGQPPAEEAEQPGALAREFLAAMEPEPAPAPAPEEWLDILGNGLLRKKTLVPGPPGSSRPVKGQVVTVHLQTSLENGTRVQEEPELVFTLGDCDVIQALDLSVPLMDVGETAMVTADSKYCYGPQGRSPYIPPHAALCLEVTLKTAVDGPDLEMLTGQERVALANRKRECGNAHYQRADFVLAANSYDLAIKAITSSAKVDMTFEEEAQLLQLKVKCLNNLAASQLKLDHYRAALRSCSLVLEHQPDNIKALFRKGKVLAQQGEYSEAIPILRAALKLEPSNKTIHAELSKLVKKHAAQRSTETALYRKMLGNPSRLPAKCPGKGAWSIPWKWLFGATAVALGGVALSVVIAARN
# UniProt Q8IXI1: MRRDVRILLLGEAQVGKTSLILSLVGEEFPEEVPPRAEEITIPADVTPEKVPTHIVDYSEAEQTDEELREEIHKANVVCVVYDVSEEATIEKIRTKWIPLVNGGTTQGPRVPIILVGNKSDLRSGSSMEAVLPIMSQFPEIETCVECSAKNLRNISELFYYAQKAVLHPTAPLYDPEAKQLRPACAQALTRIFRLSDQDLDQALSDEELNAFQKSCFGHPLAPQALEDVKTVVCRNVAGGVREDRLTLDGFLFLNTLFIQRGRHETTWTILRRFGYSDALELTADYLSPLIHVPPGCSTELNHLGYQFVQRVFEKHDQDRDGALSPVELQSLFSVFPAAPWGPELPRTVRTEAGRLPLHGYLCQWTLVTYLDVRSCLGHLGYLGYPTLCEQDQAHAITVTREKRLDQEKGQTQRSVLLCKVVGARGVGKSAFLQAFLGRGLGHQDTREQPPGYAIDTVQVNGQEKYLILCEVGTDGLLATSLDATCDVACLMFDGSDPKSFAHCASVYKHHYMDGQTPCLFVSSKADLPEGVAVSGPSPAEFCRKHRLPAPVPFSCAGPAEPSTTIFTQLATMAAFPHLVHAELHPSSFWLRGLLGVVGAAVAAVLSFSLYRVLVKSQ
# UniProt Q9NR28: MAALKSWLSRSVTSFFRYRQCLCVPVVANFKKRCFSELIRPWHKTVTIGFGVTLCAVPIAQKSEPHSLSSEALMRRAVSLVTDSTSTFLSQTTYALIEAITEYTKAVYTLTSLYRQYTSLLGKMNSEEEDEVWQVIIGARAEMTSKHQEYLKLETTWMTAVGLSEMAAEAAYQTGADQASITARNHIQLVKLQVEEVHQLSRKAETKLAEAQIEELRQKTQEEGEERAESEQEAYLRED
# UniProt Q7Z434: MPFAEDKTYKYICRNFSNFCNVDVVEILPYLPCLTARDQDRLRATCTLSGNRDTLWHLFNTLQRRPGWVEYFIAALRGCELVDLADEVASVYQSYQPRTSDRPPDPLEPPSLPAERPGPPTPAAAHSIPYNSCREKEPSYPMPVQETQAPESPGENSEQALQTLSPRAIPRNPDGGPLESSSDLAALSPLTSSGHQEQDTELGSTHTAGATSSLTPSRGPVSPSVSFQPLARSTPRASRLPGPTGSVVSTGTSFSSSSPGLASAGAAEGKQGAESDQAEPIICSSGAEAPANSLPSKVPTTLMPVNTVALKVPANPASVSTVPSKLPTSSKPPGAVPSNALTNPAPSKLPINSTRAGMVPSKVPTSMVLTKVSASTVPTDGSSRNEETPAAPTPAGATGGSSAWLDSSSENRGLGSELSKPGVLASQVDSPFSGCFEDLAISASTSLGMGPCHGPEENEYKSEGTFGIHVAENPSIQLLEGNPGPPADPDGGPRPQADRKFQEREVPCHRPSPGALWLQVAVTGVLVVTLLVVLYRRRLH
# UniProt P13861: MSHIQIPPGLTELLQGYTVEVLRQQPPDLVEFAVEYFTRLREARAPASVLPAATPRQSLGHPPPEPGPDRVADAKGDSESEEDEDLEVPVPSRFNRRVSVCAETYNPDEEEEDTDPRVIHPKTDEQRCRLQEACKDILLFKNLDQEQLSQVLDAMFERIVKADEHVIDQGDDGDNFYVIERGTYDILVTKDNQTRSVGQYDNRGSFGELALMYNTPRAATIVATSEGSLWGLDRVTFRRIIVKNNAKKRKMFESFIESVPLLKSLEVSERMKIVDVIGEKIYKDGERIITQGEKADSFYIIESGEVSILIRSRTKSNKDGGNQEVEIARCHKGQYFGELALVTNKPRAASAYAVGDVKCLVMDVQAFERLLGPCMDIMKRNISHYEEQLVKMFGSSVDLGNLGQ
# UniProt P31323: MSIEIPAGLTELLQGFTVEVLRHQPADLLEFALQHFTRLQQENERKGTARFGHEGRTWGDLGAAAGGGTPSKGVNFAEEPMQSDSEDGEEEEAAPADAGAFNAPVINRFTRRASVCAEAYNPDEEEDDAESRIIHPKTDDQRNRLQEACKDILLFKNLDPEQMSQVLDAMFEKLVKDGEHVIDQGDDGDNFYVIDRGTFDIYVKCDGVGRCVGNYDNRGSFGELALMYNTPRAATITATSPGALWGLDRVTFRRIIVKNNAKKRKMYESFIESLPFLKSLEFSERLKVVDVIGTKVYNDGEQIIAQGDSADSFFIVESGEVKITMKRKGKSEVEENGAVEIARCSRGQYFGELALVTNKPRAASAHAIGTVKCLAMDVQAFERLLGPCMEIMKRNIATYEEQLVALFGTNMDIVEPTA
# UniProt Q9Y4W6, residues 67-797: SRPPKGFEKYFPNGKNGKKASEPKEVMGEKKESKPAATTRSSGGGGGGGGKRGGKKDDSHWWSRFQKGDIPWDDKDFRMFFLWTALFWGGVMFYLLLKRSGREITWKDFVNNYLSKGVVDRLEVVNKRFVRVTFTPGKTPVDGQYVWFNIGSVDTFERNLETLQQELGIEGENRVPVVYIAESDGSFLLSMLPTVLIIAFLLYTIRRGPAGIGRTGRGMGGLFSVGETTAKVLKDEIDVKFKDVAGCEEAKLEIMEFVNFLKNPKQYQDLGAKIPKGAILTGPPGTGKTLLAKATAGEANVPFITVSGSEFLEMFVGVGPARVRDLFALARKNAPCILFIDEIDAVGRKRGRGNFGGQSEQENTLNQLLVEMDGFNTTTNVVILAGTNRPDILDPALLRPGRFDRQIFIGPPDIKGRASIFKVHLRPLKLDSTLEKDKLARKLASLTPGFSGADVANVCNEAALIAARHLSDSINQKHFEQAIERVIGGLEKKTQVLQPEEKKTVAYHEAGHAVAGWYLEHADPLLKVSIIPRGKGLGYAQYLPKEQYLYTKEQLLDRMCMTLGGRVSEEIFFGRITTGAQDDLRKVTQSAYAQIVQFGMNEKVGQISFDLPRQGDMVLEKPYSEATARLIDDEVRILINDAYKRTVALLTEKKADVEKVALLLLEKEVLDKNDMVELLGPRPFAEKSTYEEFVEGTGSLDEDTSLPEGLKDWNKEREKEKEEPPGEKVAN
# UniProt P03891: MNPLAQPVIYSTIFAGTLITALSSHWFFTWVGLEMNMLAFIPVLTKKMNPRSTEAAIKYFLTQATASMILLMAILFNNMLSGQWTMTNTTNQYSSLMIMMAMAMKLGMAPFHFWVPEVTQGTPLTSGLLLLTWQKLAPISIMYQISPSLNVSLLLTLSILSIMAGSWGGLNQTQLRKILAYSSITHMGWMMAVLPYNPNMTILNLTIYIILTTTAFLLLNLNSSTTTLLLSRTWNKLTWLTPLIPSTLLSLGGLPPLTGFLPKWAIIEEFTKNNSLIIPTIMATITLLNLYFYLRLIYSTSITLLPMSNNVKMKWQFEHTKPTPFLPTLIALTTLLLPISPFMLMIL
# UniProt O00429: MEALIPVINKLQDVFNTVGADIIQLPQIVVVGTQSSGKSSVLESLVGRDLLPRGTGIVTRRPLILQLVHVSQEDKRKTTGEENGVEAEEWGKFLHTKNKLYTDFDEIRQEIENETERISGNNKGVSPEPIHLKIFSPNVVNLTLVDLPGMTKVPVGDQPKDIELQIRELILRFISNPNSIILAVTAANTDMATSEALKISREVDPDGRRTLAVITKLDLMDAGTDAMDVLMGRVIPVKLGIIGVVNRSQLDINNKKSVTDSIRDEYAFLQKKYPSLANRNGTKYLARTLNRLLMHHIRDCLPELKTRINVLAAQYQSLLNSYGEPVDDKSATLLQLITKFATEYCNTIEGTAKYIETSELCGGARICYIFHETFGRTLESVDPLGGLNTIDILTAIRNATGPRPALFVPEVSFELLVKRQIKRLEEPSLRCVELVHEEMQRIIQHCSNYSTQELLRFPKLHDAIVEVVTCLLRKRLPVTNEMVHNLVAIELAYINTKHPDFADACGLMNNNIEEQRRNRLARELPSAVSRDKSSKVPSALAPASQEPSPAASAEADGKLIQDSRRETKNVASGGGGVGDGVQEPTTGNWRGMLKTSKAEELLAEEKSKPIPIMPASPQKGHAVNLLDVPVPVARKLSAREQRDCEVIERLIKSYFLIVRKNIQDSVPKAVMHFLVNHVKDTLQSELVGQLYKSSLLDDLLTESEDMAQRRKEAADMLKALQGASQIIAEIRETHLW
# UniProt A4D1E9: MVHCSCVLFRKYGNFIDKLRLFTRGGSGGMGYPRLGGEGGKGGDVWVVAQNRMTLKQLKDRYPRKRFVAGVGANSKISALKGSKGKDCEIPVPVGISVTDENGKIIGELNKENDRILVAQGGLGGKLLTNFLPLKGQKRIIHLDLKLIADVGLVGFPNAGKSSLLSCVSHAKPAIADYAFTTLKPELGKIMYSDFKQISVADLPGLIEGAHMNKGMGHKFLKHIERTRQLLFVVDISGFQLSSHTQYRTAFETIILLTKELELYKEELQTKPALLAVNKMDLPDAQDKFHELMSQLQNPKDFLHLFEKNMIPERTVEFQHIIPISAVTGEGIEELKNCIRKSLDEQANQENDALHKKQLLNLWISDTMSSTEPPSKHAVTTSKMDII
# UniProt Q9Y375, residues 25-327: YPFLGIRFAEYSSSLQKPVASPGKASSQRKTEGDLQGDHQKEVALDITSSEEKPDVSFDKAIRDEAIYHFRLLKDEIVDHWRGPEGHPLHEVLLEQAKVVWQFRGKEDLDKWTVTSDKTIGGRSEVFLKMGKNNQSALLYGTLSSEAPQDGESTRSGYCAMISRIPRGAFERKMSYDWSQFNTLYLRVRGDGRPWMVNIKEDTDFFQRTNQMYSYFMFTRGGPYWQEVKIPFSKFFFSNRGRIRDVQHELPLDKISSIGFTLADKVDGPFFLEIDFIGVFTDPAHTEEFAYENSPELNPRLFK
# UniProt O00165: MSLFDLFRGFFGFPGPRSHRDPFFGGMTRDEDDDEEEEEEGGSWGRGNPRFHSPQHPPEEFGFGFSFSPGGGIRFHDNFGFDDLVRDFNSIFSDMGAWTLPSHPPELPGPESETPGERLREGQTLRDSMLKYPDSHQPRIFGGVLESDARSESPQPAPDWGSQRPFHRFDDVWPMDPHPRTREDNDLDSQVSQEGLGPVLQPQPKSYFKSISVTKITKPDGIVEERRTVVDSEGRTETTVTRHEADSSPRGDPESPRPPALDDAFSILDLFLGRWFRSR
# UniProt Q15118, residues 29-436: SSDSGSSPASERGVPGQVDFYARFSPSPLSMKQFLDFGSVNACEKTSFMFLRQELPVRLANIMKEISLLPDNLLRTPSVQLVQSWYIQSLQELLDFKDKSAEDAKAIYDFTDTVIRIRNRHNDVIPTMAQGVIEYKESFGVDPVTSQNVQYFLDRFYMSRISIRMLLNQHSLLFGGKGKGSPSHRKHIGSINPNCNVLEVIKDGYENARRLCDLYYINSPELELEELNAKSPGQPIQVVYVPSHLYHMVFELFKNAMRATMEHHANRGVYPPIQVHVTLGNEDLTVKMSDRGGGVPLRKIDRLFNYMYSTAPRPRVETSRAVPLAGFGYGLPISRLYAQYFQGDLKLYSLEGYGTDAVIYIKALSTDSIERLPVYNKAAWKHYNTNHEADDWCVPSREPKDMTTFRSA
# Legend:
# Assay in all cases: proximity labelling
# [1] = target: T1, SLC25A46 BirA*-FLAG bait (human) (UniProt Q96AG3)
# T1 sequence: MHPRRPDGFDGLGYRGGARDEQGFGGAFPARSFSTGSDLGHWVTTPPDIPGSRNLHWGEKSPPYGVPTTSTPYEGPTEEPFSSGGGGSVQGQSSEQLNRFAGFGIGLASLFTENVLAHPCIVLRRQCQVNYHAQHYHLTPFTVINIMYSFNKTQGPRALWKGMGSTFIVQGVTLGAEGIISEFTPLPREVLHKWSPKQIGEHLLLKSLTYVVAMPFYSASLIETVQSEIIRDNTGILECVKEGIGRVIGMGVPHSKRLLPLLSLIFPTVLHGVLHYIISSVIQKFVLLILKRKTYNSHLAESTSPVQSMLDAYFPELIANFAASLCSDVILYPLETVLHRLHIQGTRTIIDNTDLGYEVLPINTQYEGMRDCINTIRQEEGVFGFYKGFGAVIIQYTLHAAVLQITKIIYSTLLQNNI
# [2] = target: BirA*-FLAG-FKBP8 (human) (UniProt Q14318)
# [3] = target: RHOT2 BirA*-FLAG bait (human) (UniProt Q8IXI1)
# [4] = target: T2, PTPN1 BirA*-FLAG bait (human) (UniProt P18031)
# T2 sequence: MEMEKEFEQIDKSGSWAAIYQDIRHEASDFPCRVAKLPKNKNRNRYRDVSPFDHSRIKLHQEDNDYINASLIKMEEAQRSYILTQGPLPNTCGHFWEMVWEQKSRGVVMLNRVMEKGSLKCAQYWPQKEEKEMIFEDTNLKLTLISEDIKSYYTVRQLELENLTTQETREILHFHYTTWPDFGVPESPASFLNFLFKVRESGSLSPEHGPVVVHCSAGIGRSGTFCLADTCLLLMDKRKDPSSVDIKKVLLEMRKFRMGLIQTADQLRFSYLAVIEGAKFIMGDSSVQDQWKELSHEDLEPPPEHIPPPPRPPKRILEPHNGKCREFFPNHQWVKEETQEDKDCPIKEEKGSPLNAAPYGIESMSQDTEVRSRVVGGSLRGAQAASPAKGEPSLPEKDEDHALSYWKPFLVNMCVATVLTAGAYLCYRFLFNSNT
# [5] = target: T3, RMDN3-BirA*-FLAG (human) (UniProt Q96TC7)
# T3 sequence: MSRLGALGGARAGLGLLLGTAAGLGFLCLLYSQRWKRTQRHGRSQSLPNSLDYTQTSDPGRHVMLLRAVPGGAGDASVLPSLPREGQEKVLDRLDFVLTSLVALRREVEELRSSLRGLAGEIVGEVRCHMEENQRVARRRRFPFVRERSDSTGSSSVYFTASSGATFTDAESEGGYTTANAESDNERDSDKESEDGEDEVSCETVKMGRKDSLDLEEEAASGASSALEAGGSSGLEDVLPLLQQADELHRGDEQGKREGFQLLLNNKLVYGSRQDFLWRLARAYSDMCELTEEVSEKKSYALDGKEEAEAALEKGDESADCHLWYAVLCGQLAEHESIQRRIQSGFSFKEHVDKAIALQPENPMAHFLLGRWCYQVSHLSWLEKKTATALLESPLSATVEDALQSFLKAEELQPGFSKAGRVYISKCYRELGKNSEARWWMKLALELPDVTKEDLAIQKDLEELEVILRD
# [6] = target: T4, EXD2-M126A-BirA*-FLAG (human) (UniProt Q9NVH0)
# T4 sequence: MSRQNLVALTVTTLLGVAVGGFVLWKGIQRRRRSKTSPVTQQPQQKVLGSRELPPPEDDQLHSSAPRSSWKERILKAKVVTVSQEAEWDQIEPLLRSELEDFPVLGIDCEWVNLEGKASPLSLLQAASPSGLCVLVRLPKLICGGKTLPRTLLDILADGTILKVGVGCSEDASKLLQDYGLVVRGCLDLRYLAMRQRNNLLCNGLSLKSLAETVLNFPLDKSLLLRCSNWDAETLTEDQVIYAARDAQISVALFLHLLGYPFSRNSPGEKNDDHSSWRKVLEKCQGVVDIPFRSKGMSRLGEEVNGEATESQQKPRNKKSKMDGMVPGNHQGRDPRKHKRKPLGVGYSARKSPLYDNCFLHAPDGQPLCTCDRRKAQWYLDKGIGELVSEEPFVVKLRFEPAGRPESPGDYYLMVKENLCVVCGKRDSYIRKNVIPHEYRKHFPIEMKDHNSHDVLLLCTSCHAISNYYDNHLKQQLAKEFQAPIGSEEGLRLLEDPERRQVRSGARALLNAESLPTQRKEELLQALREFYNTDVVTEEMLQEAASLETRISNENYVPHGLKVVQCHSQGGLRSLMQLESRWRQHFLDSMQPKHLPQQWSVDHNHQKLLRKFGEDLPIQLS
# [7] = target: T5, EXD2-iso2-BirA*-FLAG (human) (UniProt Q9NVH0)
# T5 sequence: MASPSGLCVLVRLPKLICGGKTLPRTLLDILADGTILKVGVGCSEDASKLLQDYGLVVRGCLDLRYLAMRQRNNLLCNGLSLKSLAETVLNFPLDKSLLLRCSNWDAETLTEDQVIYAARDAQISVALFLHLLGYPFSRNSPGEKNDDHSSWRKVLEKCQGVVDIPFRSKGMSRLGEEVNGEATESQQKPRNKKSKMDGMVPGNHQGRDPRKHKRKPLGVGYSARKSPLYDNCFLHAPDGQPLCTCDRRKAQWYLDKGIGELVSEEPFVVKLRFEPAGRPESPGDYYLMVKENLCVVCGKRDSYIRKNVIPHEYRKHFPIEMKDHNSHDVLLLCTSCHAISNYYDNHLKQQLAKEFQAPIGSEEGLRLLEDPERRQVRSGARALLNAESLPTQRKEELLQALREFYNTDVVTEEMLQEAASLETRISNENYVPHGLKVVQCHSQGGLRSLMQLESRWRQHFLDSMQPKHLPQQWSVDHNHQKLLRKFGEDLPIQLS
# [8] = target: T6, EXD2-iso1-BirA*-FLAG (human) (UniProt Q9NVH0)
# T6 sequence: T4 sequence with A126M
# [9] = target: T7, ACAD9-BirA*-FLAG (human) (UniProt Q9H845)
# T7 sequence: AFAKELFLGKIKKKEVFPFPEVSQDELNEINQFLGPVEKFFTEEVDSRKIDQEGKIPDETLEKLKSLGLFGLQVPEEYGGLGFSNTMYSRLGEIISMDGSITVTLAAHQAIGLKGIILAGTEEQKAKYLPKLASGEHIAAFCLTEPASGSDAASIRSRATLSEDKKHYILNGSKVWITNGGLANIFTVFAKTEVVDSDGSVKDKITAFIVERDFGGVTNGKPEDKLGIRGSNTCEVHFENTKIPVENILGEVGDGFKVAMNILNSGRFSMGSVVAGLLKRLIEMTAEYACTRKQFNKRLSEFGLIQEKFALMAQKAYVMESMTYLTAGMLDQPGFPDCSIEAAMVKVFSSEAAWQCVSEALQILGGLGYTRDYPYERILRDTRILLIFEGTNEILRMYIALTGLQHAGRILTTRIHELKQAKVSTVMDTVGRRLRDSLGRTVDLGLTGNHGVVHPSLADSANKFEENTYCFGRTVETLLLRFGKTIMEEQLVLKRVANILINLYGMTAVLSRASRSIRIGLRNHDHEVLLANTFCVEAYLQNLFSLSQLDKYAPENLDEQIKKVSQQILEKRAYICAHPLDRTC
# [10] = target: DIABLO-BirA*-FLAG (human) (UniProt Q9NR28)
# [11] = target: T8, MTRF1L-BirA*-FLAG (human) (UniProt Q9UGC7)
# T8 sequence: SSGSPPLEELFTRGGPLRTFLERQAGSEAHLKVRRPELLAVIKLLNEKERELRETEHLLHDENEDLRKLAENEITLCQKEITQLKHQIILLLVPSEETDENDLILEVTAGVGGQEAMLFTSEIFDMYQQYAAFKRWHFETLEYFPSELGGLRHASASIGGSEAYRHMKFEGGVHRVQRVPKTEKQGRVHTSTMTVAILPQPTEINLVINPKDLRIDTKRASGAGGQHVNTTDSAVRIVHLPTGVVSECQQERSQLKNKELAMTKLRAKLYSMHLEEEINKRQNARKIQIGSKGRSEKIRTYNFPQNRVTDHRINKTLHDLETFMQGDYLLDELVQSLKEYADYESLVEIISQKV
# [12] = target: T9, BirA*-FLAG-SLC25A12 (human) (UniProt O75746)
# T9 sequence: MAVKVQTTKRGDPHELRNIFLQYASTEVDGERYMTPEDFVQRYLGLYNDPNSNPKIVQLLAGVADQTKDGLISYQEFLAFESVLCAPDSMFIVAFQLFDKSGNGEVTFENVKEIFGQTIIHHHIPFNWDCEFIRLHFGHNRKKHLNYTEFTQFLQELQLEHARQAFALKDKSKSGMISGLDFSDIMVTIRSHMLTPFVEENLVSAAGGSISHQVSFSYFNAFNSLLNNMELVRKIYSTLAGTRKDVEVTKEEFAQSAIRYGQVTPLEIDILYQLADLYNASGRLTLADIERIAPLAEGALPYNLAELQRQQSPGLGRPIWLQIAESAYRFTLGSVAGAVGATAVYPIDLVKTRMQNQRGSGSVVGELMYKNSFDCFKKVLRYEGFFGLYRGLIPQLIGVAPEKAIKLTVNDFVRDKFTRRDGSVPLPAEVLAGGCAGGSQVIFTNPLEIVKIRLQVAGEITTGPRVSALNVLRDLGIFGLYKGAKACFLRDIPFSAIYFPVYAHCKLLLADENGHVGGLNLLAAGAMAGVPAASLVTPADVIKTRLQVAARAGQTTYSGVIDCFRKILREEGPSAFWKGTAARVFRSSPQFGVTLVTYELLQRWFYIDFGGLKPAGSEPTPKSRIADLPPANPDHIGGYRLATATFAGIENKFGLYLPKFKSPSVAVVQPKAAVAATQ
binding [1],binding [2],binding [3],binding [4],binding [5],Substance,other results
binds,binds,binds,binds,binds,MAVS (from UniProt Q7Z434 1-540),
binds,binds,binds,binds,binds,PRKAR2A (from UniProt P13861 1-404),

# Further lines, the substance ahead of its results:
Substance,binding [1],binding [2],binding [3],binding [4],binding [5],other results
PRKAR2B (from UniProt P31323 1-418),binds,binds,binds,binds,binds,
AFG3L2 (from UniProt Q9Y4W6 67-797),,,,,,binding [6]: binds; binding [7]: binds; binding [8]: binds
ND2 protein (from UniProt P03891 1-347),,,,,,binding [9]: binds
DNM1L (from UniProt O00429 1-736),binds,binds,binds,binds,binds,
BIRC6 (from UniProt Q9NR09 1-4857),,,,,,binding [10]: binds
GTPBP10 (from UniProt A4D1E9 1-387),,,,,,binding [11]: binds
NDUFAF1 (from UniProt Q9Y375 25-327),,,,,,binding [11]: binds
HAX1 (from UniProt O00165 1-279),,,,,,binding [12]: binds
PDK1 (from UniProt Q15118 29-436),,,,,,binding [9]: binds

# Substitutions are numbered along the chain they refer to. These are yes or no findings as the source states them, for the method shown. In cells and extracts the contact can be indirect. A yes stands for co-enrichment or nearness to the bait. Other partners may have been found. For some assays here: Tags and fused reporters may be left off the sequences shown.
